Data from publication doi:10.1101/2024.02.04.578783.
Results are given in words; binding and its absence hold for the method and conditions named. Binding seen in cells or lysates may run through a third protein. Some results given as binding are weak or reduced against the parent protein; the word gives no strength. Sequences can lack the tags named with a protein.

By UniProt entry, the sequences of proteins in these tests, tags left out. Where a name states a change or a piece, a line headed by the entry shows the natural chain unless it says otherwise.
UniProt P10415: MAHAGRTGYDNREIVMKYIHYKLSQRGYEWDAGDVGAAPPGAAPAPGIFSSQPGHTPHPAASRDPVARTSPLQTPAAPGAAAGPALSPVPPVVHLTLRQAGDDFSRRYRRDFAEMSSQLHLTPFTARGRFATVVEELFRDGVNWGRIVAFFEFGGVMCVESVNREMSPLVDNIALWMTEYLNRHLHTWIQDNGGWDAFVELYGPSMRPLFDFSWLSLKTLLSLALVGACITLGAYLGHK
UniProt Q07820: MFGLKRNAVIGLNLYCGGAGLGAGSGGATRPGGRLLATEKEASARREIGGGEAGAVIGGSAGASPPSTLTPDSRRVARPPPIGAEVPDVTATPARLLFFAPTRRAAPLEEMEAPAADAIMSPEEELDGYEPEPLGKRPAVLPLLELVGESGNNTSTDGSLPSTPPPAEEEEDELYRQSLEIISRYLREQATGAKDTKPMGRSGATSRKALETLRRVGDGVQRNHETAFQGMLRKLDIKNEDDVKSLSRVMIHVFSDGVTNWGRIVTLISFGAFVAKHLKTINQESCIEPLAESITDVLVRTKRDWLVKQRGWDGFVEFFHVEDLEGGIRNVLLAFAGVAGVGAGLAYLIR

Columns and labels:
Assay in all cases: single-molecule pull-down and co-IP
BCL2 G101V-mCherry = BCL2 G101V-mCherry (UniProt P10415)
BCL2 D103E-mCherry = BCL2 D103E-mCherry (UniProt P10415)
MCL1-mCherry = MCL1-mCherry (UniProt Q07820)
[1] = target: BCL2-mCherry (wild type), P10415; settings: remark: other sources report otherwise

binding (BCL2 G101V-mCherry)	binding (BCL2 D103E-mCherry)	binding (MCL1-mCherry)	binding [1]	Binder
binds	binds	no binding	–	BAD-eGFP (protein, UniProt Q92934 1-168) MFQIPEFEPSEQEDSSSAERGLGPSPAGDGPSGSGKHHRQAPGLLWDASHQQEQPTSSSHHGGAGAVEIRSRHSSYPAGTEDDEGMGEEPSPFRGRSRSAPPNLWAAQRYGRELRRMSDEFVDSFKKGLPRPKSAGTATQMRQSSSWTRVFQSWWDRNLGRGSSAPSQ
–	–	–	binds	BAD-eGFP, Q92934 1-168 (protein) MFQIPEFEPSEQEDSSSAERGLGPSPAGDGPSGSGKHHRQAPGLLWDASHQQEQPTSSSHHGGAGAVEIRSRHSSYPAGTEDDEGMGEEPSPFRGRSRSAPPNLWAAQRYGRELRRMSDEFVDSFKKGLPRPKSAGTATQMRQSSSWTRVFQSWWDRNLGRGSSAPSQ
